Experimental data reported in PMC10487539, “Glutaryl-CoA Dehydrogenase Misfolding in Glutaric Acidemia Type 1” (International Journal of Molecular Sciences, 2023).
These are yes or no findings as the source states them, for the method shown. Some entries that bind do so weakly or less than the wild type. Tags and fused reporters may be left off the sequences shown.

Columns and labels:
Assay in all cases: native gel or EMSA; self-association; BN-PAGE and Western blot of lysates of transfected COS-7 cells (20 mM Hepes pH 7.0, 200 mM NaCl, 1% Triton X-100)
[1] = molecular target: human GCDH variant V400M expressed in COS-7 cells (pEF DEST 51 V5) (human) (UniProt Q92947)
[2] = molecular target: human GCDH variant R138G expressed in COS-7 cells (pEF DEST 51 V5) (human) (UniProt Q92947)
[3] = molecular target: human GCDH variant R227P expressed in COS-7 cells (pEF DEST 51 V5) (human) (UniProt Q92947)
[4] = molecular target: human GCDH variant M263V expressed in COS-7 cells (pEF DEST 51 V5) (human) (UniProt Q92947)

B1: human GCDH variant V400M expressed in COS-7 cells (pEF DEST 51 V5) (enzyme, UniProt Q92947 45-438)
chain: RPEFDWQDPLVLEEQLTTDEILIRDTFRTYCQERLMPRILLANRNEVFHREIISEMGELGVLGPTIKGYGCAGVSSVAYGLLARELERVDSGYRSAMSVQSSLVMHPIYAYGSEEQRQKYLPQLAKGELLGCFGLTEPNSGSDPSSMETRAHYNSSNKSYTLNGTKTWITNSPMADLFVVWARCEDGCIRGFLLEKGMRGLSAPRIQGKFSLRASATGMIIMDGVEVPEENVLPGASSLGGPFGCLNNARYGIAWGVLGASEFCLHTARQYALDRMQFGVPLARNQLIQKKLADMLTEITLGLHACLQLGRLKDQDKAAPEMVSLLKRNNCGKALDIARQARDMLGGNGISDEYHMIRHAMNLEAVNTYEGTHDIHALILGRAITGIQAFTASK
binding [1]: binds

B2: human GCDH variant R138G expressed in COS-7 cells (pEF DEST 51 V5) (enzyme, UniProt Q92947 45-438)
chain: RPEFDWQDPLVLEEQLTTDEILIRDTFRTYCQERLMPRILLANRNEVFHREIISEMGELGVLGPTIKGYGCAGVSSVAYGLLARELERVDSGYGSAMSVQSSLVMHPIYAYGSEEQRQKYLPQLAKGELLGCFGLTEPNSGSDPSSMETRAHYNSSNKSYTLNGTKTWITNSPMADLFVVWARCEDGCIRGFLLEKGMRGLSAPRIQGKFSLRASATGMIIMDGVEVPEENVLPGASSLGGPFGCLNNARYGIAWGVLGASEFCLHTARQYALDRMQFGVPLARNQLIQKKLADMLTEITLGLHACLQLGRLKDQDKAAPEMVSLLKRNNCGKALDIARQARDMLGGNGISDEYHVIRHAMNLEAVNTYEGTHDIHALILGRAITGIQAFTASK
binding [2]: binds

B3: human GCDH variant R227P expressed in COS-7 cells (pEF DEST 51 V5) (enzyme, UniProt Q92947 45-438)
chain: RPEFDWQDPLVLEEQLTTDEILIRDTFRTYCQERLMPRILLANRNEVFHREIISEMGELGVLGPTIKGYGCAGVSSVAYGLLARELERVDSGYRSAMSVQSSLVMHPIYAYGSEEQRQKYLPQLAKGELLGCFGLTEPNSGSDPSSMETRAHYNSSNKSYTLNGTKTWITNSPMADLFVVWAPCEDGCIRGFLLEKGMRGLSAPRIQGKFSLRASATGMIIMDGVEVPEENVLPGASSLGGPFGCLNNARYGIAWGVLGASEFCLHTARQYALDRMQFGVPLARNQLIQKKLADMLTEITLGLHACLQLGRLKDQDKAAPEMVSLLKRNNCGKALDIARQARDMLGGNGISDEYHVIRHAMNLEAVNTYEGTHDIHALILGRAITGIQAFTASK
binding [3]: binds

B4: human GCDH variant M263V expressed in COS-7 cells (pEF DEST 51 V5) (enzyme, UniProt Q92947 45-438)
chain: RPEFDWQDPLVLEEQLTTDEILIRDTFRTYCQERLMPRILLANRNEVFHREIISEMGELGVLGPTIKGYGCAGVSSVAYGLLARELERVDSGYRSAMSVQSSLVMHPIYAYGSEEQRQKYLPQLAKGELLGCFGLTEPNSGSDPSSMETRAHYNSSNKSYTLNGTKTWITNSPMADLFVVWARCEDGCIRGFLLEKGMRGLSAPRIQGKFSLRASATGVIIMDGVEVPEENVLPGASSLGGPFGCLNNARYGIAWGVLGASEFCLHTARQYALDRMQFGVPLARNQLIQKKLADMLTEITLGLHACLQLGRLKDQDKAAPEMVSLLKRNNCGKALDIARQARDMLGGNGISDEYHVIRHAMNLEAVNTYEGTHDIHALILGRAITGIQAFTASK
binding [4]: binds
